Source: PMC4427999
These are yes or no findings as the source states them, for the method shown. In cells and extracts the contact can be indirect. Some entries that bind do so weakly or less than the wild type.

Amino acid sequences for entries named in this document (tags omitted). Residues count along the entry.
UniProt P05106, residues 27-788: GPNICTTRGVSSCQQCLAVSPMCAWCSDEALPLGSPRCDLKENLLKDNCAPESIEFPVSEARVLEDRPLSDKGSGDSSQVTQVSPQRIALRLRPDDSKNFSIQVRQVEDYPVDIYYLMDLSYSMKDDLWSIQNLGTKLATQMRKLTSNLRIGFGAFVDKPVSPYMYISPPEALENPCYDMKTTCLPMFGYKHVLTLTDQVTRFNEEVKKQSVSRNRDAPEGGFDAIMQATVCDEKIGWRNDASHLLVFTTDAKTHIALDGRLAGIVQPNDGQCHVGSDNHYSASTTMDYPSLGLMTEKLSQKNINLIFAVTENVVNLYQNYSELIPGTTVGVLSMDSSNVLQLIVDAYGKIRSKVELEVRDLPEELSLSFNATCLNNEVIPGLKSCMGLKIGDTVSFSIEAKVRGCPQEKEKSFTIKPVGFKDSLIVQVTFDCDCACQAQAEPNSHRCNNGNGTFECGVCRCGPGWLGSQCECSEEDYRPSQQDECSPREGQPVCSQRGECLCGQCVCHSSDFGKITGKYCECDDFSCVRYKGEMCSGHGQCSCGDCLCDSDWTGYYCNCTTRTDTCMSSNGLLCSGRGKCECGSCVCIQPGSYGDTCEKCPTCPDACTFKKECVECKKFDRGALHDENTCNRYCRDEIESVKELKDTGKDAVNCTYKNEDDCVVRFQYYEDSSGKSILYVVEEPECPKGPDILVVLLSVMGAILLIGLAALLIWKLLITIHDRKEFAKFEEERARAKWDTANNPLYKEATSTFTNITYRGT
UniProt Q05397: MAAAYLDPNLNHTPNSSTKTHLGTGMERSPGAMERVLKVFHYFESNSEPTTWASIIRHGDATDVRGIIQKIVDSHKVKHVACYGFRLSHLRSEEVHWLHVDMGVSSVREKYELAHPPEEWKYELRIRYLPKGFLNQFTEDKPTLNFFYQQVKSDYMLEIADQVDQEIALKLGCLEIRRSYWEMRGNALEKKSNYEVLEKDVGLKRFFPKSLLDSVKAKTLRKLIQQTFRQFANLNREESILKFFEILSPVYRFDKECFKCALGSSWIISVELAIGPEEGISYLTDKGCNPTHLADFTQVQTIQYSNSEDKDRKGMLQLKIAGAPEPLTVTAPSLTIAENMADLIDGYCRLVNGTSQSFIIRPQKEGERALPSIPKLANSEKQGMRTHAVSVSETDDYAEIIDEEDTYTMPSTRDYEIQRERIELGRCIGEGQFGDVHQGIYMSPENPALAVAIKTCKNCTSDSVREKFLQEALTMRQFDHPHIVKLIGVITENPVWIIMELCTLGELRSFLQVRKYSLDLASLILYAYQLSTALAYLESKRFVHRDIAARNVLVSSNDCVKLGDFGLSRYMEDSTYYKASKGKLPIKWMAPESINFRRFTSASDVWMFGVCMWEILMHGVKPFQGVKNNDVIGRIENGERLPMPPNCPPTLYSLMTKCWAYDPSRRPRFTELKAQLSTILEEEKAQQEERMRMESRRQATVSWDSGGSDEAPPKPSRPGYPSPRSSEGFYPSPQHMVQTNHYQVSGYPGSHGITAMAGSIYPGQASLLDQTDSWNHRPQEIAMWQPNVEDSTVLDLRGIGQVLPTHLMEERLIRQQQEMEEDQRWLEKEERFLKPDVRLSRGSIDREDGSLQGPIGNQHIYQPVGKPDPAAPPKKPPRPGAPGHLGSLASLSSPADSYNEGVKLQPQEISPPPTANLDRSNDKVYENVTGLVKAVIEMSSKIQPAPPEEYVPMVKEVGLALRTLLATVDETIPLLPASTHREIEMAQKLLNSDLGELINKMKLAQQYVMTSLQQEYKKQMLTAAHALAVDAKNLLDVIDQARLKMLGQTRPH
UniProt Q9Y490: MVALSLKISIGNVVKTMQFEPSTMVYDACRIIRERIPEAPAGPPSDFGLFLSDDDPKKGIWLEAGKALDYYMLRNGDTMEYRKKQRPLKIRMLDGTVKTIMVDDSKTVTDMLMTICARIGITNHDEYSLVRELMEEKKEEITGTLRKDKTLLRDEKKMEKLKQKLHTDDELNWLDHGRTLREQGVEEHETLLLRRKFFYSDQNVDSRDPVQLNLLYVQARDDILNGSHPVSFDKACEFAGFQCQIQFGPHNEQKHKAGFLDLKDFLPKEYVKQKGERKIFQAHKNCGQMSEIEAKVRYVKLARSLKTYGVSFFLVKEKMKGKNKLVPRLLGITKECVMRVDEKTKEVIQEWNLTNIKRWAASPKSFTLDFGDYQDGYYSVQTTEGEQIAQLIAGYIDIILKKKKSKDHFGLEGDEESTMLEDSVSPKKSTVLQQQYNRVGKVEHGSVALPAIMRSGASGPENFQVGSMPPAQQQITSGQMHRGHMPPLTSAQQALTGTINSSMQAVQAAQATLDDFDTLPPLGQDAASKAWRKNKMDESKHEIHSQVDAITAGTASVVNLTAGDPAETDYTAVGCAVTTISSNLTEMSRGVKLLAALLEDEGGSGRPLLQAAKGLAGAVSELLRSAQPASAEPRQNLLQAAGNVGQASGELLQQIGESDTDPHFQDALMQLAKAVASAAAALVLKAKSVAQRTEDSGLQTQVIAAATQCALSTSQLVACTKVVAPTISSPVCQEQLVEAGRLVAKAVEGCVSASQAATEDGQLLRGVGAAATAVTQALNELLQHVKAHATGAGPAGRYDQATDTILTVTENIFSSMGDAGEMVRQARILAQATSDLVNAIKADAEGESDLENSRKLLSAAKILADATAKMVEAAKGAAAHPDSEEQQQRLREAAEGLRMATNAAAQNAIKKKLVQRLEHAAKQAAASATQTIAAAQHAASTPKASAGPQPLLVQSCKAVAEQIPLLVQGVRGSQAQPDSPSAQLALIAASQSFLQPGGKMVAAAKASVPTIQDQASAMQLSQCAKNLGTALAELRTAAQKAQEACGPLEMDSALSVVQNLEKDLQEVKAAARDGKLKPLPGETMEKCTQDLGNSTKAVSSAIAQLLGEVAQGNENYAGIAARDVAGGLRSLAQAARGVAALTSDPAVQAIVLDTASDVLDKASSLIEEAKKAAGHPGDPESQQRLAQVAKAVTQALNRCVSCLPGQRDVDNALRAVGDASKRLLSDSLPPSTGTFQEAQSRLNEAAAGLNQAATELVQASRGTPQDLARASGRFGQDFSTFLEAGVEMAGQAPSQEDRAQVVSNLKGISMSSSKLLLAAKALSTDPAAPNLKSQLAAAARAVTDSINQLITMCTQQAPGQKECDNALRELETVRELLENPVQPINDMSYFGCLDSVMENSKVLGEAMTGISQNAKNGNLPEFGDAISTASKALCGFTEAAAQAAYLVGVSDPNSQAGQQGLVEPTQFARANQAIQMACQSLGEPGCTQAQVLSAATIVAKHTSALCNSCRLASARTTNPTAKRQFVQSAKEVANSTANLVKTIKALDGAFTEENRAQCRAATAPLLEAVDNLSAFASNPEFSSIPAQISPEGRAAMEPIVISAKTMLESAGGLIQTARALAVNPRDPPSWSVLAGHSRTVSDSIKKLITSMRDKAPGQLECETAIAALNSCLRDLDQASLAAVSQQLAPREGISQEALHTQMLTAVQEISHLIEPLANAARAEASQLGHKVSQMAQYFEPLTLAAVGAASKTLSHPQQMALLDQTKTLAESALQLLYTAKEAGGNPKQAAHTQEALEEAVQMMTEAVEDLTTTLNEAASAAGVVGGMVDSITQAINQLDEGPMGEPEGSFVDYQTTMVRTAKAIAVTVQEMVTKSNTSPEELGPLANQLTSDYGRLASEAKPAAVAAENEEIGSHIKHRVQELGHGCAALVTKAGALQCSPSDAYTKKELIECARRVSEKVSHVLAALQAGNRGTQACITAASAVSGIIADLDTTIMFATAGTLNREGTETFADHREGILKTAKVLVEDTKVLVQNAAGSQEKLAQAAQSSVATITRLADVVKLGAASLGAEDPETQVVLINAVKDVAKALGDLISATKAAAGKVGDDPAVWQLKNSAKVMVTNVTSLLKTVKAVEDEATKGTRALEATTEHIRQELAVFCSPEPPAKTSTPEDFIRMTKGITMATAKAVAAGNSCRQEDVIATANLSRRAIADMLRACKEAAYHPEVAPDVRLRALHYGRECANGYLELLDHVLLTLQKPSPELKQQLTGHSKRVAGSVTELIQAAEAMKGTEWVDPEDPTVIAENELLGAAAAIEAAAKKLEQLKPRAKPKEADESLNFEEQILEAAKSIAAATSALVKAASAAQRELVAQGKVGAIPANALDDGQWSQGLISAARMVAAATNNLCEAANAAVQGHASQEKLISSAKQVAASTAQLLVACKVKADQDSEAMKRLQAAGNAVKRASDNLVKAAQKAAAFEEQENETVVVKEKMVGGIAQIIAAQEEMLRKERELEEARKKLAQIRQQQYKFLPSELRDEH

Molecular target: integrin β3 (human (endogenous in DU-145)) (UniProt P05106)
Test: co-IP; immunoprecipitation with an anti-integrin β3 antibody (Pierce Classic IP Kit) from RIPA lysates (100 μg protein) of DU-145 cells, NC RNA and miR-124 mimic transfectants; overnight at 4°C, Protein G Plus/Protein A agarose 1 h at 4°C; western blot for talin 1, FAK and Src

| binding | Substance |
| --- | --- |
| binds | focal adhesion kinase (from UniProt Q05397 1-1052) (enzyme) |
| binds | talin 1 (from UniProt Q9Y490 1-2541) |
